Measured values as given in patent publication US20140336119A1 (INSTITUT PASTEUR, published 2014).

What was measured:
[1] = target: Muc2 of rabbit colonic mucus (rabbit); experiment: immunofluorescence colocalization on PFA-fixed rabbit colon
[2] = target: Muc2 of rabbit ileal mucus (rabbit); experiment: fluorescent staining of PFA-fixed rabbit ileum, confocal microscopy
[3] = target: Muc2 of guinea pig colonic mucus (guinea pig); experiment: fluorescent staining of PFA-fixed colon; attributed to Muc2 in paragraph 190
[4] = target: Muc2 of rabbit colonic mucus (rabbit); experiment: as above

B1: Cy5-MUB70 (peptide)
peptide: CVHVQYIDGETDQMLRQDDLDGYTDETIPYSTAEGIKKFEGDGYELFKDNFPAGEKFDNDDTNDQFYTVIF
modifications: Cy5 mono maleimide on the added N-terminal Cys
notes: Chemically synthesized; also called MUB70-Cy5; Cy5-labeled MUB
In the case of B1, the binding [1] is reported as “binds”, the binding [2] is reported as “no binding (tested: 1 µg/mL)” and the binding [3] is reported as “binds”. For the same binder, the binding [4] was “binds”.

Results are given in words; binding and its absence hold for the method and conditions named. For some of these results: Binding can be weak; no strength is given.
